Data: patent publication US6410721

Assays:
[1] = system: RF-X transcription factor (nuclear extract of Raji cells) (Homo sapiens); experiment: EMSA; settings: protein in an extract
[2] = system: RF-X transcription factor (nuclear extract of Raji cells) (Homo sapiens); experiment: competition with a labelled probe; settings: competed with hot AX probe, in contrast to direct binding assay; protein in an extract
[3] = system: RF-X (from rabbit reticulocyte lysate); experiment: EMSA; settings: preincubated decoy at 100 and 200 fold excess; labelled X-box probe unable to compete decoy off RF-X; protein translated in vitro; protein details: sample from B. M. Peterlin, UCSF; folded or branched DNA

CCCCTAGCAACAGATG (double strand) [16 bp X-box]
binding result ([1]; no measurable direct binding): no binding | binding result [2]: binds

CTAGGGGTTTTTCCCCTAGCAACAGATGTTTTTCATCTGTTG [RF-X decoy T5 (42* mer, ligated)]
binding result ([1]; binds to a lesser degree than RF-X decoy, also competes with AX (p198), folded or branched DNA, variant of RF-X decoy (ligated, 4T loops)): binds more weakly

GACTGGGTTTTCCCAGTCCATACGAAGTTTTCTTCGTATG [RF-X-2 decoy (ligated)]
binding result ([1]; no measurable binding in gel shift, decoy active in CAT assay, folded or branched DNA): no binding

GACTGGGTTTTCCCAGTCCATACGAAGTTTTCTTCGTATG [unligated RF-X-2 decoy]
binding result ([1]; no measurable binding in gel shift, decoy active in CAT assay, folded or branched DNA, variant of RF-X-2 decoy (ligated)): no binding

GCTAGGGGTTTTTCCCCTAGCAACAGATGTTTTTCATCTGTT [42-mer polynucleotide decoy (Example 1)]
binding result [3]: binds

TATACGGGTTTTCCCGTATACCACTCTGTTTTCAGAGTGG [M6 decoy (ligated)]
binding result ([1]; no measurable binding, folded or branched DNA, variant of RF-X decoy (ligated, 4T loops)): no binding

TATACGGGTTTTCCCGTATACCACTCTGTTTTCAGAGTGG [unligated M6 decoy]
binding result ([1]; no measurable binding, folded or branched DNA, variant of M6 decoy (ligated)): no binding

TGAGTTGGTTTTCCAACTCACTTTCCGCTTTTGCGGAAAG [unligated kappaB mutant]
binding result ([1]; no measurable binding, kappaB mutant also did not compete with AX (p198), folded or branched DNA): no binding

Construct, isoform or probe ends are uncertain for at least one entry. For part of these data: Where cells or extracts were used, other partners may take part. For part of these data: A negative result means that nothing was seen under these conditions. For part of these data: The comparison behind a weaker result is the experiment's own reference, which may not be listed here.
